Laboratory results published in PubChem BioAssay AID540276 (National Center for Advancing Translational Sciences (NCATS), 2011).
In all, about 300,000 compounds went through this assay and about 5,400 (1.8%) were called active. The shares of active, inactive and inconclusive entries below differ from those in the screen. The call rests on the fitted dose curve; tested in HEK293 cells. Potencies beside an inconclusive call are fits to weak or partial responses and may not hold up.

assay: qHTS for inhibitors of binding or entry into cells for Marburg Virus; settings: Marburg virus pseudotyped entry inhibition, cell reporter; activity change, negative = inhibition: at 37.8 µM (top of the series) unless noted
On the % scale 0 is the no-effect control and ±100 the full control effect; potency means the concentration at half of the fitted maximal effect.

SMILES	Potency	activity change, negative = inhibition
Cc1cc(=O)[nH]c(N/N=C/C2=C(N3CCOCC3)C(=C\c3ccc(Cl)cc3)/CC2)n1	inconclusive: 0.631 µM [inhibitor, full curve, poor fit]	–
COC(=O)c1sc(N)c(C(=O)OC)c1COC(=O)c1c(C)noc1C	inconclusive: 3.26 µM [inhibitor, single point]	–
O=C1NC2(CCC3(CC2)OCCO3)NN1c1ccccc1	inconclusive: 7.94 µM [inhibitor, partial curve, poor fit]	–
COCCN1Cc2cccc(C(=O)Nc3cc(C)cc(C)c3)c2C1=O	inconclusive: 35.5 µM [inhibitor, single point]	–
c1ccc(CN2CCN(c3nc4ccccc4s3)CC2)cc1	inconclusive: 7.94 µM [inhibitor, partial curve]	–
Cc1cccc(C)c1NC(=O)CSc1nnc(Cn2nnc(-c3ccccc3)n2)n1-c1ccccc1	inconclusive: 29.1 µM [inhibitor, single point]	–
Cc1ccc(C(=O)C(C)OC(=O)c2cc(=O)[nH]c3ccccc23)cc1 (stereo not given)	inconclusive: 1.26 µM [activator, single point]	–
C=CCNC(=O)c1ccc(-n2cccc2)cc1	inconclusive: 25.1 µM [activator, single point]	–
Cc1ccc(C)c(NC(=O)CSc2nc3ccccc3nc2N2CCOCC2)c1	inconclusive: 7.08 µM [inhibitor, full curve, poor fit]	–
CCCCc1c(CCC)c(=N)c2ccccc2n1C	inconclusive: 3.26 µM [inhibitor, full curve]	–
Cc1ccc2nc(-c3ccc(NC(=O)CN4C(=O)NC(C)(c5ccc(OC(F)F)cc5)C4=O)cc3)sc2c1 (stereo not given)	inconclusive: 35.5 µM [inhibitor, single point]	–
Cc1ccc(CNc2ccc(N3CCOCC3)cc2)cc1	inconclusive: 12.6 µM [activator, partial curve, poor fit]	–
C=CC[C@@H]1C=C[C@@H](OC(=O)OCC)[C@@H](COC(=O)OCC)O1	inconclusive: 0.376 µM [activator, partial curve, poor fit]	–
Cc1ccc(NC(=O)C2=CN3CCS(=O)(=O)N=C3C=C2)cc1	inconclusive: 0.794 µM [inhibitor, single point]	–
CCn1nccc1C(=O)Nc1ccc(S(=O)(=O)NC23CC4CC(CC(C4)C2)C3)cc1	inconclusive: 35.5 µM [inhibitor, single point]	–
COc1ccccc1CCNC(=O)CNC(=O)c1ccc2ccccc2c1	inconclusive: 2.82 µM [inhibitor, partial curve, poor fit]	–
Brc1ccc(-c2csc(N/N=C/c3ccc4c(c3)OCO4)n2)cc1	inconclusive: 0.562 µM [activator, partial curve, poor fit]	–
CCOC(=O)Cn1cc([N+](=O)[O-])nc1[N+](=O)[O-]	inconclusive: 35.5 µM [inhibitor, single point]	–
CCOc1ccccc1C(=O)NCCCCNC(=O)c1ccccc1OCC	inconclusive: 10 µM [inhibitor, partial curve]	–
COc1ccc(OC)c(NC(=O)CCN2CCCCCC2)c1	–	inactive: -14.8%
CCOc1ccc(C(=O)N2CC(=O)Nc3ccc(C)cc3C2c2ccc(F)cc2)cc1OCC (stereo not given)	inconclusive: 35.5 µM [inhibitor, single point]	–
COc1cc(/C=N/NC(=O)c2cccnc2)ccc1OC(=O)c1ccco1	–	inactive: 5.5%

SMILES	Potency	activity change, negative = inhibition
Cc1ccc(C(=O)NCC(c2ccc(Cl)cc2)N2CCCCC2)cc1 (stereo not given)	inconclusive: 7.94 µM [inhibitor, partial curve, poor fit]	–
CCOC(=O)c1c(C)n(C)c2ccc(OCCN(C)C)cc12	–	inactive: -16.7%
COc1ccc(S(=O)(=O)N2CCCCC2)cc1-n1cnnn1	inconclusive: 3.16 µM [activator, full curve]	–
NC(=O)CSc1ncc(-c2ccccc2)[nH]1	–	inactive: 15.2%
O=C(N/N=C/c1cn(-c2ccccc2)nc1-c1ccc2c(c1)OCCO2)c1ccncc1	–	inactive: 12.8% [at 46.1 µM]
COc1cccc2cc(C(C)N(CCCN3CCOCC3)C(=S)Nc3ccc(C)cc3)oc12 (stereo not given)	inconclusive: 11.2 µM [inhibitor, partial curve, poor fit]	–
O=c1c(Br)c(NCc2ccccc2)cnn1-c1ccc(F)cc1	inconclusive: 17.8 µM [activator, single point]	–
CCCCOc1ccccc1C1NC(=O)NC(C)=C1C(=O)OCCOCC (stereo not given)	–	inactive: -18%
O=S1(=O)CC(N2CCN(CCO)CC2)CN1Cc1ccccc1 (stereo not given)	inconclusive: 0.0158 µM [activator, full curve, poor fit]	–
O=C(COc1ccc(S(=O)(=O)NC2CCCCC2)cc1)NCc1ccccn1	–	inactive: 3.43%
O=C(Cn1cnc2cc([N+](=O)[O-])ccc2c1=O)NC(c1ccccc1)c1ccccc1	inconclusive: 6.51 µM [inhibitor, partial curve]	–
COc1ccc(Nc2nc3c(S(=O)(=O)c4ccccc4)nnn3c3ccc(Cl)cc23)cc1	inconclusive: 20 µM [activator, single point]	–
COc1cc2c(cc1OC)CN(c1ccc(F)cc1[N+](=O)[O-])CC2	inconclusive: 3.98 µM [activator, partial curve]	–
COc1ccc(-c2ccc(SCC(=O)c3cccs3)nn2)cc1	inconclusive: 35.5 µM [inhibitor, single point]	–
COC(=O)CSc1nnc(-c2ccc3c(c2)OCO3)n1C	inconclusive: 2.31 µM [inhibitor, partial curve, poor fit]	–
O=S(=O)(c1ccc(NC(=S)NN=Cc2ccccc2O)cc1)N1CCCCC1	inconclusive: 25.1 µM [inhibitor, single point]	–
CC1CCN(CC(C)OC(=O)c2ccco2)CC1 (stereo not given)	inconclusive: 5.62 µM [activator, partial curve, poor fit]	–
CCC(CC)NC(=O)CSc1ccc(S(=O)(=O)N2CCCCC2)cn1	–	inactive: -0.324%
CCc1ccc2occ(CC(=O)N(Cc3ccccc3)C3CCS(=O)(=O)C3)c2c1 (stereo not given)	inconclusive: 0.501 µM [inhibitor, full curve, poor fit]	–
COCCn1c(COc2ccc(C)cc2)nc2ccccc21	inconclusive: 6.31 µM [activator, single point]	–
Cc1cccc(CN2CCN(CC(=O)NCCCN3CCN(c4ccc(F)cc4)CC3)C2=O)c1	inconclusive: 18.3 µM [inhibitor, partial curve]	–
Cc1ccc(NC(=O)CN2C(=O)C(c3ccccc3)=NC23CCCCC3)cc1C	inconclusive: 11.2 µM [inhibitor, partial curve, poor fit]	–

An excerpt from above in order of heavy-atom count, largest number first.
SMILES	Potency	activity change, negative = inhibition
COc1ccc(-c2ccc(SCC(=O)c3cccs3)nn2)cc1	inconclusive: 35.5 µM [inhibitor, single point]	–
c1ccc(CN2CCN(c3nc4ccccc4s3)CC2)cc1	inconclusive: 7.94 µM [inhibitor, partial curve]	–
NC(=O)CSc1ncc(-c2ccccc2)[nH]1	–	inactive: 15.2%

Next structures follow:

SMILES	Potency	activity change, negative = inhibition
CCOC(=O)c1cccc(-c2ccc(C=O)o2)c1	inconclusive: 1.78 µM [activator, partial curve]	–
CCn1c(SCC(=O)Nc2ccc3c(c2)c2ccccc2n3CC)nnc1-c1cnccn1	inconclusive: 18.3 µM [inhibitor, single point]	–
Cc1cc(NC(=O)CCl)no1	inconclusive: 14.1 µM [inhibitor, single point]	–
Cc1ccc(C2(C)NC(=O)N(CC(=O)c3ccc(Cl)s3)C2=O)cc1 (stereo not given)	inconclusive: 3.16 µM [activator, single point]	–
COc1cc2c(C(=O)N3CCN(Cc4ccc5c(c4)OCO5)CC3)cn(C)c(=O)c2cc1OC	inconclusive: 13 µM [inhibitor, partial curve, poor fit]	–
Cc1ccc(S(=O)(=O)Oc2ccc3c(c2)O/C(=C\c2cccnc2)C3=O)cc1	inconclusive: 20.6 µM [inhibitor, partial curve]	–
C=CCn1c(SCCN2CCCC2)nc2c([nH]c3ccccc32)c1=O	inconclusive: 1.12 µM [activator, full curve, poor fit]	–
Cc1cc2nc(C3CCN(Cc4nnnn4Cc4cccs4)CC3)[nH]c2cc1C	inconclusive: 20.6 µM [inhibitor, partial curve, poor fit]	–
Cc1cccc(NC(=S)NNC(=O)COc2ccc(Cl)cc2Cl)c1	inconclusive: 0.501 µM [activator, full curve, poor fit]	–
Cc1ccc(CSCCNC(=O)c2cccc([N+](=O)[O-])c2)cc1	inconclusive: 3.16 µM [activator, single point]	–
Nc1ccc(C2(c3ccc(N)cc3)c3ccccc3-c3ccccc32)cc1	inconclusive: 29.1 µM [inhibitor, partial curve, poor fit]	–
CCN1CCN(c2ncc3c(n2)CC(c2ccc(OC)c(OC)c2)CC3=O)CC1 (stereo not given)	inconclusive: 11.6 µM [inhibitor, partial curve]	–
CCOC(=O)c1sc(NC(=O)CSc2n[nH]c(C)n2)nc1C	inconclusive: 35.5 µM [inhibitor, single point]	–
CC(C)(C)N1CC(COc2ccccc2)OC1=O (stereo not given)	inconclusive: 18.3 µM [activator, single point]	–
CC(C)(C)c1ccc(-c2noc(C(=O)NN)n2)cc1	–	inactive: -21.4% [at 46.1 µM]
Cc1cc(C(=O)O)c(=O)[nH]c1C	–	inactive: -10.2%
Cc1ccc(S(=O)(=O)N2CCNC(=O)C2)c(C)c1	inconclusive: 1.26 µM [inhibitor, single point]	–
COc1ccc(Br)cc1CN(C)C(=O)C1CC(=O)N(C2CCCC2)C1 (stereo not given)	–	inactive: -19.1%
COc1ccc(CC(=O)Nc2nnc(C(C)C)s2)cc1	–	inactive: 11.7% [at 46.1 µM]
Cc1ccc(/C=C/C(=O)c2ccccc(=O)c2O)cc1C	active: 15.8 µM	–
COc1cccc(NCc2nnc(SCC(=O)N(C)C3CCS(=O)(=O)C3)n2C2CCCCC2)c1 (stereo not given)	–	inactive: -19.8% [at 46.1 µM]
